In PMC4709127, “Wuho Is a New Member in Maintaining Genome Stability through its Interaction with Flap Endonuclease 1”:
No constants are given. Whether binding was seen depends on the method and setting. For part of these data: In cells and extracts the contact can be indirect. Some results given as binding are weak or reduced against the parent protein; the word gives no strength. For part of these data: Sequences can lack the tags named with a protein.

Amino acid sequences for entries named in this document (tags omitted).
UniProt P12004: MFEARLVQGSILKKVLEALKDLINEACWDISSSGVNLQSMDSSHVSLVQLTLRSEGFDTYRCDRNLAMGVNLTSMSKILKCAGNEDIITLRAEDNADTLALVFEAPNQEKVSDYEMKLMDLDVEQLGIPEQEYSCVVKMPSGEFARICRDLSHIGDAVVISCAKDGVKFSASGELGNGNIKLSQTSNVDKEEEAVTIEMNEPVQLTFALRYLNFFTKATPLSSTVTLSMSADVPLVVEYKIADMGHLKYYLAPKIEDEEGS
UniProt P39748: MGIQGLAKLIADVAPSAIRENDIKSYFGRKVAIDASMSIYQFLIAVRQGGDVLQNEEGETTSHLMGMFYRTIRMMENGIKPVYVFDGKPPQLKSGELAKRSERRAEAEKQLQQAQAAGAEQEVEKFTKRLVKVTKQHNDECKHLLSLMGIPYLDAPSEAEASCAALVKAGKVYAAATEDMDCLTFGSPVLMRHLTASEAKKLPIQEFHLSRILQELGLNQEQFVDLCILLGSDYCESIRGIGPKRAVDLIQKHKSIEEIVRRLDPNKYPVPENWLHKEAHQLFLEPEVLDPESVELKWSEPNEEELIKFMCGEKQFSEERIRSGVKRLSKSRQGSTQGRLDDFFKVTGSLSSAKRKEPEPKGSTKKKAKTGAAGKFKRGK

How the values were obtained:
[1] = target: T1, hWH with a C-terminal hexahistidine tag (human) (UniProt P57081); assay: pull-down; purified proteins, His6-tagged protein held on Ni(II)-NTA beads, partner detected by western blot; both purified
T1 sequence: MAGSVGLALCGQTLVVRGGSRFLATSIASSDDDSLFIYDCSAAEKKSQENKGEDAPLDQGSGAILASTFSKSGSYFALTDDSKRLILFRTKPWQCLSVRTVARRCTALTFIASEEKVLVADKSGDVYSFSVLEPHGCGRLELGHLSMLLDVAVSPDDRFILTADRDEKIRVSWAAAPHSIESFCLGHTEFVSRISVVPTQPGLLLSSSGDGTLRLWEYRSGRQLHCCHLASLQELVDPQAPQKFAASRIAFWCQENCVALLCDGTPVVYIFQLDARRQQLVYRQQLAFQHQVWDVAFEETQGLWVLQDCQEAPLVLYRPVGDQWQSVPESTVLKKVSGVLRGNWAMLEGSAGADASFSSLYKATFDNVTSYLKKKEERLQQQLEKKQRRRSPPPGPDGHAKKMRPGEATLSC

[2] = target: T2, human Wuho protein (hWH) tagged with V5 and hexahistidine epitopes (human) (UniProt P57081); assay: co-IP; same anti-V5 bead-bound proteins of hWH-V5-His6 cells, partners detected by western blot
T2 sequence: T1 sequence

[3] = target: T3, human Wuho protein (hWH), endogenous (human (endogenous in HCT116)) (UniProt P57081); assay: co-IP; endogenous proteins, HCT116 p53+/+ lysate in RIPA buffer, Protein A magnetic beads with anti-hWH or anti-FEN1 antibody, 0.1 U/ml micrococcal nuclease, 4°C overnight, western blot
T3 sequence: T1 sequence

binding [1] | binding [2] | binding [3] | Substance
no binding | – | – | PCNA with a C-terminal FLAG tag (from UniProt P12004 1-261)
– | binds | binds | flap endonuclease 1 (FEN1), endogenous (from UniProt P39748 1-380) (enzyme)
